Some of the results follow.
Columns and labels:
Test in all cases: glycan array binding signal (z-score within array); higher = stronger binding
Conditions in all cases: glycan notation: IUPAC condensed, linker removed
Gal(a1-3)Gal = molecular target: Gal(a1-3)Gal
In short: (§1)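 Glycan array data came from 3228 arrays in the Consortium for Functional Glycomics database, and only arrays with an available protein sequence were kept. Glycan names were put into IUPAC-condensed notation, and columns mapping to the same glycan were averaged. The binding signal is a within-array Z-score, averaged across arrays of one protein sequence run at different concentrations or buffers and across linkers. A negative Z-score can be read as non-binding.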

Gal(a1-3)Gal(b1-3)GlcNAc = molecular target: Gal(a1-3)Gal(b1-3)GlcNAc
In short: as §1

Gal(a1-3)Gal(b1-4)Glc = molecular target: Gal(a1-3)Gal(b1-4)Glc
In short: as §1

Gal(a1-3)Gal(b1-4)GlcNAc = molecular target: Gal(a1-3)Gal(b1-4)GlcNAc
In short: as §1

[1] = molecular target: Gal(a1-3)Gal(b1-4)[Fuc(a1-3)]GlcNAc
In short: as §1

[2] = molecular target: Gal(a1-3)Gal(b1-4)[Fuc(a1-3)]GlcNAc(b1-2)Man(a1-3)[Gal(a1-3)Gal(b1-4)[Fuc(a1-3)]GlcNAc(b1-2)Man(a1-6)]Man(b1-4)GlcNAc(b1-4)GlcNAc
In short: as §1

Gal(a1-3)GalNAc = molecular target: Gal(a1-3)GalNAc
In short: as §1

[3] = molecular target: Gal(a1-3)[Gal(a1-4)]Gal(b1-4)GlcNAc
In short: as §1

Gal(a1-4)Gal(b1-4)Glc = molecular target: Gal(a1-4)Gal(b1-4)Glc
In short: as §1

Gal(a1-4)Gal(b1-4)GlcNAc = molecular target: Gal(a1-4)Gal(b1-4)GlcNAc
In short: as §1

[4] = molecular target: Gal(a1-4)Gal(b1-4)GlcNAc(b1-3)Gal(b1-4)Glc
In short: as §1

Gal(a1-4)GlcNAc = molecular target: Gal(a1-4)GlcNAc
In short: as §1

Gal(a1-6)Glc = molecular target: Gal(a1-6)Glc
In short: as §1

Gal(b1-2)Gal = molecular target: Gal(b1-2)Gal
In short: as §1

Gal(b1-3)Gal = molecular target: Gal(b1-3)Gal
In short: as §1

Gal(b1-3)Gal(b1-4)GlcNAc = molecular target: Gal(b1-3)Gal(b1-4)GlcNAc
In short: as §1

[5] = molecular target: Gal(b1-3)Gal(b1-4)GlcNAc(b1-2)Man(a1-3)[Gal(b1-3)Gal(b1-4)GlcNAc(b1-2)Man(a1-6)]Man(b1-4)GlcNAc(b1-4)GlcNAc
In short: as §1

Gal(b1-3)GalNAc = molecular target: Gal(b1-3)GalNAc
In short: as §1

[6] = molecular target: Gal(b1-3)GalNAc(a1-3)[Fuc(a1-2)]Gal(b1-4)Glc
In short: as §1

[7] = molecular target: Gal(b1-3)GalNAc(a1-3)[Fuc(a1-2)]Gal(b1-4)GlcNAc
In short: as §1

[8] = molecular target: Gal(b1-3)GalNAc(b1-3)Gal(a1-4)Gal(b1-4)Glc
In short: as §1

[9] = molecular target: Gal(b1-3)GalNAc(b1-4)Gal(b1-4)Glc
In short: as §1

[10] = molecular target: Gal(b1-3)GalNAc(b1-4)[Neu5Ac(a2-3)]Gal(b1-4)Glc
In short: as §1

Gal(b1-3)GlcNAc = molecular target: Gal(b1-3)GlcNAc
In short: as §1

[11] = molecular target: Gal(b1-3)GlcNAc(b1-2)Man(a1-3)[Gal(b1-3)GlcNAc(b1-2)Man(a1-6)]Man(b1-4)GlcNAc(b1-4)GlcNAc
In short: as §1

[12] = molecular target: Gal(b1-3)GlcNAc(b1-2)Man(a1-3)[Gal(b1-3)GlcNAc(b1-2)Man(a1-6)]Man(b1-4)GlcNAc(b1-4)[Fuc(a1-6)]GlcNAc
In short: as §1

[13] = molecular target: Gal(b1-3)GlcNAc(b1-3)Gal(b1-3)GlcNAc
In short: as §1

[14] = molecular target: Gal(b1-3)GlcNAc(b1-3)Gal(b1-4)Glc
In short: as §1

[15] = molecular target: Gal(b1-3)GlcNAc(b1-3)Gal(b1-4)GlcNAc
In short: as §1

[16] = molecular target: Gal(b1-3)[Fuc(a1-4)]GlcNAc
In short: as §1

[17] = molecular target: Gal(b1-3)[Fuc(a1-4)]GlcNAc(b1-2)Man(a1-3)[Gal(b1-3)[Fuc(a1-4)]GlcNAc(b1-2)Man(a1-6)]Man(b1-4)GlcNAc(b1-4)GlcNAc
In short: as §1

[18] = molecular target: Gal(b1-3)[Fuc(a1-4)]GlcNAc(b1-2)Man(a1-3)[Gal(b1-3)[Fuc(a1-4)]GlcNAc(b1-2)Man(a1-6)]Man(b1-4)GlcNAc(b1-4)[Fuc(a1-6)]GlcNAc
In short: as §1

[19] = molecular target: Gal(b1-3)[Fuc(a1-4)]GlcNAc(b1-3)Gal(b1-3)[Fuc(a1-4)]GlcNAc
In short: as §1

[20] = molecular target: Gal(b1-3)[Fuc(a1-4)]GlcNAc(b1-3)Gal(b1-4)GlcNAc
In short: as §1

[21] = molecular target: Gal(b1-3)[Fuc(a1-4)]GlcNAc(b1-3)Gal(b1-4)[Fuc(a1-3)]GlcNAc
In short: as §1

[22] = molecular target: Gal(b1-3)[GlcNAc(b1-6)]GalNAc
In short: as §1

[23] = molecular target: Gal(b1-3)[Neu5Ac(a2-6)]GalNAc
In short: as §1

B1: Adiponectin (Rattus norvegicus), Q8K3R4 (protein)
chain: MLLLQALLFLLILPSHEGITATEGPGALVPPPKETCAGWMAGIPGYPGHNGIPGRDGRDGTPGEKGEKGDAGVLGPKGDPGDAGMTGAEGPRGFPGTPGRKGEPGEAAYMYHSAFSVGLETRVTVPNVPIRFTKIFYNQQNHYDGSTGKFHCNIPGLYYFSYHITVYMKDVKVSLFKKDKAVLFTYDQYQEKNVDQASGSMLLHLEVGDQVWLQVYGEGDNNGLYADNVNDSTFTGFLLYHDTN
glycan array binding signal (z-score) (Gal(a1-3)Gal): 1.4 | glycan array binding signal (z-score) (Gal(a1-3)Gal(b1-3)GlcNAc): -0.495 | glycan array binding signal (z-score) (Gal(a1-3)Gal(b1-4)Glc): 2.17 | glycan array binding signal (z-score) (Gal(a1-3)Gal(b1-4)GlcNAc): 0.022 | glycan array binding signal (z-score) [1]: -0.702 | glycan array binding signal (z-score) [2]: 2.75 | glycan array binding signal (z-score) (Gal(a1-3)GalNAc): -0.349 | glycan array binding signal (z-score) [3]: 0.915 | glycan array binding signal (z-score) (Gal(a1-4)Gal(b1-4)Glc): 1.46 | glycan array binding signal (z-score) (Gal(a1-4)Gal(b1-4)GlcNAc): -0.311 | glycan array binding signal (z-score) [4]: -0.1 | glycan array binding signal (z-score) (Gal(a1-4)GlcNAc): -0.334 | glycan array binding signal (z-score) (Gal(a1-6)Glc): -0.915 | glycan array binding signal (z-score) (Gal(b1-2)Gal): -0.961 | glycan array binding signal (z-score) (Gal(b1-3)Gal): 1.21 | glycan array binding signal (z-score) (Gal(b1-3)Gal(b1-4)GlcNAc): 0.528 | glycan array binding signal (z-score) [5]: -0.799 | glycan array binding signal (z-score) (Gal(b1-3)GalNAc): -0.573 | glycan array binding signal (z-score) [6]: 2.11 | glycan array binding signal (z-score) [7]: -0.406 | glycan array binding signal (z-score) [8]: -0.835 | glycan array binding signal (z-score) [9]: -0.713 | glycan array binding signal (z-score) [10]: -0.307 | glycan array binding signal (z-score) (Gal(b1-3)GlcNAc): -0.279 | glycan array binding signal (z-score) [11]: -0.669 | glycan array binding signal (z-score) [12]: -1.31 | glycan array binding signal (z-score) [13]: -0.596 | glycan array binding signal (z-score) [14]: 0.919 | glycan array binding signal (z-score) [15]: 0.244 | glycan array binding signal (z-score) [16]: 0.096 | glycan array binding signal (z-score) [17]: -1.37 | glycan array binding signal (z-score) [18]: -1.12 | glycan array binding signal (z-score) [19]: -0.659 | glycan array binding signal (z-score) [20]: -0.476 | glycan array binding signal (z-score) [21]: -0.73 | glycan array binding signal (z-score) [22]: -0.199 | glycan array binding signal (z-score) [23]: 1.84

— the supplement of paper PMC8728848
